# Test results from PubChem BioAssay AID2685 (National Center for Advancing Translational Sciences (NCATS), 2010).
# The other results are listed elsewhere or left out. Shown are side measurements of this screen, not its main read-out; they come without a call. Most of these compounds were active or inconclusive in the main read-out, so they are no random draw. The note in brackets gives the kind of curve behind each potency; many fits are weak.
# Assay: qHTS Assay for Lipid Storage Modulators in Drosophila S3 Cells;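 for cell number change: cells counted by Cell Tracker Red CMTPX staining in the red channel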
# Conditions: BODIPY lipid droplet fluorescence, 18-24 h; for cell number change: measured here: cell count max response, cells fed with added oleic acid
# Method in brief: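 Laser-scanning cytometry quantifies lipid droplet accumulation (500–530 nm total intensity; droplet/cell object ratio) in oleic acid-fed (400 uM added) Drosophila S3 cells treated with a concentration series. 20 uM Triacsin C defined 100% inhibition.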
# [1] = measured here: cell number channel AC50, cells fed with added oleic acid
# [2] = measured here: lipid fluorescence (Fed channel) AC50, cells fed with added oleic acid
SMILES,cell number change [%],AC50 [1],AC50 [2]
Cc1cc(C)cc(NC(=S)N2CCC(NC(=O)c3ccco3)CC2)c1,31.5,"0.0092 µM [rising, full curve, poor fit]",
Cc1ccccc1OCC(=O)Nc1ccncc1,-48.1,"5.17 µM [falling, partial curve]",
COc1ccccc1CCNC(=O)c1ccc(OC)c(OC2CCN(C(C)C)CC2)c1,15.9,,"18.4 µM [rising, partial curve]"
O=C(COc1ccc(S(=O)(=O)N2CCCC2)cc1Cl)NC1CCCC1,4.41,,"18.4 µM [rising, partial curve]"
CC(C)C(C(=O)NCc1ccco1)N(Cc1ccco1)C(=O)CNS(=O)(=O)c1ccccc1 (centres undefined),-6.41,,
Cc1ccc(S(=O)(=O)N(C)/N=C2/C(=O)N(CC(=O)O)c3ccccc32)cc1,19.6,,"0.517 µM [falling, single point]"
Cc1ccc(S(=O)(=O)NCCCNS(=O)(=O)c2ccccc2[N+](=O)[O-])cc1,15.5,,"29.1 µM [rising, single point]"
O=C(CN1CCOC1=O)N1CCCC(Nc2ccc(F)c(F)c2)C1 (centres undefined),19.8,,"6.51 µM [rising, single point]"
CN1C(=S)SC(/[N+]([O-])=C\c2ccc(Cl)cc2)C1(C)C (centres undefined),-12.9,,"11.6 µM [falling, single point]"
CSc1ccc(Cl)c(C(=O)Nc2ccc(N3CCOCC3)cc2)c1,9.97,,"6.51 µM [rising, single point]"
COc1ccccc1C(=O)NC(=S)N1CCCc2ccccc21,,"2.06 µM [falling, partial curve, poor fit]",
COc1ccccc1C(=O)NCCC(=O)N1CCN(c2ccc(C(F)(F)F)cn2)CC1,-37.1,"23.1 µM [falling, partial curve]","0.0164 µM [falling, full curve, poor fit]"
CC1CCCN(C(=O)CN2C(=O)NC3(CCCCC3C)C2=O)C1 (centres undefined),10.8,,"29.1 µM [rising, single point]"
CCOC(=O)C(Cc1ccccc1)NC(=O)CCc1nnc2ccc(N3CCCC3)nn12 (centres undefined),6.49,,"2.31 µM [rising, partial curve]"
COCCN1C(=O)N(c2cccc(OC)c2)C(=O)C1CC(=O)Nc1cccc(F)c1 (centres undefined),19.3,,"3.66 µM [rising, full curve]"
Cc1sc(NC(=O)CSc2nnc(-c3ccc(F)cc3)o2)c(C#N)c1C,-1.87,,"0.58 µM [rising, full curve]"
CCCCC(=O)Nc1nnc(S(=O)(=O)N(CC)c2ccccc2)s1,12.6,"4.61 µM [rising, single point]","20.6 µM [rising, single point]"
O=C(CCN1C(=O)C2C3C=CC(C3)C2C1=O)NCc1cccnc1 (centres undefined),8.46,,
O=C(CSc1nncn1-c1ccccc1)Nc1ccccc1,4.67,,"29.1 µM [rising, single point]"
Cc1ccc(S(=O)(=O)N(CCC(=O)NCc2ccc(S(N)(=O)=O)cc2)c2ccccc2)cc1,5.38,,
CN(C)c1ccc(/C=N/NS(=O)(=O)c2ccc(Br)cc2)cc1,26.5,"4.11 µM [rising, single point]",

SMILES,cell number change [%],AC50 [1],AC50 [2]
COc1cccc(C(=O)N2CCN(Cc3ccccc3Br)CC2)c1,5.96,,
CN(C)C(=O)c1cc(-c2ccccc2)no1,-16,,"0.00461 µM [falling, full curve, poor fit]"
N#Cc1ccccc1OCCCNC1CCCC1,-12.3,,
CC(=O)Nc1ccc(C(=O)CSc2cc(C)c3cccc(C)c3n2)cc1,1.27,,"0.58 µM [rising, single point]"
COc1cccc(S(=O)(=O)Nc2cccnc2)c1,17.5,,"23.1 µM [falling, partial curve]"
CC(C)Cn1cnc2c1c(=O)n(CC(O)c1ccccc1)c(=O)n2CC(C)C (centres undefined),6.97,,"6.51 µM [rising, single point]"
COc1ccc(Cc2nc3ccc(C(=O)N4C[C@@H](C)O[C@@H](C)C4)cc3o2)cc1OC,-30.4,"29.1 µM [falling, single point]",
O=C(CSc1nnc(Nc2ccccc2)s1)NCc1cccs1,-9.44,,"1.46 µM [falling, full curve, poor fit]"
COc1ccccc1CCNC(=O)CCSc1nc(-c2ccco2)cc(C(F)(F)F)n1,-43.9,"13 µM [falling, partial curve]","20.6 µM [falling, partial curve]"
CC(C)c1ccc2c(c1)C(=O)NC(C)(C)C2,-28.1,,"0.731 µM [falling, full curve]"
Cc1cccc(CSc2nc3c(c(=O)[nH]2)CCCC3)c1,18.6,,"1.64 µM [rising, full curve, poor fit]"
COc1ccccc1C(=O)NCCC(=O)NCC(c1ccco1)N1CCCCC1 (centres undefined),-0.5,,
CCOC(=O)N1CCN(C(=O)C2CCN(S(=O)(=O)c3ccc(C)cc3)CC2)CC1,-3.46,,"0.731 µM [falling, single point]"
CC1=CC(C)(C)Nc2ccc(OC(=O)CCN3C(=O)c4ccccc4C3=O)cc21,-73.3,"20.6 µM [falling, single point]","18.4 µM [falling, single point]"
CCCc1cc(=O)[nH]c(SCc2cc(=O)oc3c(C)c(C)ccc23)n1,2.52,"0.146 µM [falling, full curve, poor fit]",
CCCc1cc(=O)oc2cc(C)cc(OCC(=O)Nc3ccc(S(N)(=O)=O)cc3)c12,85.5,"29.1 µM [rising, single point]","23.1 µM [falling, single point]"
Cc1ccc(CNC(=O)C2CCCN(c3cnccn3)C2)cc1 (centres undefined),37.3,"32.6 µM [rising, single point]",
Cc1c(O)ccc2c(CN3CCN(Cc4ccccc4)CC3)cc(=O)oc12,6.38,,"6.51 µM [falling, single point]"
CCOc1ccc(OCCN2C(=O)NC(Cc3c[nH]c4ccccc34)C2=O)cc1 (centres undefined),97.5,"29.1 µM [rising, single point]",
CC(C)Cn1c(O)c(/C=C2\C=NN=C2c2ccccc2)sc1=S,-18,"3.26 µM [rising, single point]",
COc1ccc(Cc2nnc(SCC(=O)Nc3ccc(C)cc3C)[nH]c2=O)cc1,0.299,"4.11 µM [falling, single point]","4.61 µM [falling, single point]"

SMILES,cell number change [%],AC50 [1],AC50 [2]
C/C(=N\NC(=O)c1cccc(S(=O)(=O)N2CCCC2)c1)c1ccc(C)cc1,21.2,,
CC(C)c1cc(CNC(=O)c2ccc(OC3CCN(Cc4ccccn4)CC3)cc2)on1,-36.3,"20.6 µM [falling, partial curve]","29.1 µM [falling, single point]"
Cc1ccc(C)c(OCCCNC2CCCC2)c1C,-27.6,,"0.58 µM [falling, full curve]"
Cn1c(=O)c2c(nc(CN3CCC(C(N)=O)CC3)n2Cc2ccccc2F)n(C)c1=O,15.5,,"0.0731 µM [falling, single point]"
COC(=O)[C@H](Cc1ccccc1)NC(=O)NCc1ccccc1,-2.11,,
C=CCn1c(COc2ccc(F)cc2)nnc1SCC(=O)N1CC(=O)Nc2ccccc21,-27.3,,"5.17 µM [falling, full curve, poor fit]"
O=C1CN(C(=O)CSc2nc3c(cnn3-c3ccccc3)c(=O)[nH]2)c2ccccc2N1,0.778,,"0.092 µM [rising, full curve, poor fit]"
O=c1cc(CNCCCO)c2ccccc2[nH]1,-0.714,,"0.58 µM [rising, single point]"
CN1/C(=C\C=N\NC(=O)c2cccnc2)C(C)(C)c2ccccc21,-0.33,,
CCN(CC)C(CNC(=O)CSc1nnnn1-c1ccc(C)c(C)c1)c1ccco1 (centres undefined),-14.2,"5.8 µM [falling, single point]","3.66 µM [falling, single point]"
COc1ccc(C)cc1NC(=O)c1nn(C)cc1Br,24.3,"0.731 µM [rising, full curve, poor fit]",
CSc1cccc(NC(=O)CN(C)S(=O)(=O)c2ccc(F)cc2)c1,0.781,,"6.51 µM [rising, single point]"
COc1ccc(NC(=O)COC(=O)c2ccccc2SCC(=O)N2CCCC2)cc1,,"6.51 µM [rising, single point]","4.61 µM [rising, single point]"
COc1c(Br)cc(Br)cc1C(=O)O,,,"8.2 µM [falling, partial curve]"
COCCNC(=O)/C(C#N)=C/c1cc(C)n(-c2ccc(C)cc2)c1C,2.41,,"1.84 µM [falling, single point]"
O=C(CCS(=O)(=O)c1cc2c(cc1Cl)NC(=O)CO2)NCc1ccc(F)cc1,5.76,,"6.51 µM [rising, single point]"
CCc1ccc(OC(C)C(=O)Nc2ccc(S(=O)(=O)Nc3nccs3)cc2)cc1 (centres undefined),-5.22,,"0.58 µM [falling, single point]"
CCN(c1ccccc1)S(=O)(=O)c1ccc(C(=O)Nc2nnc(-c3ccco3)o2)cc1,-18.5,,"14.6 µM [falling, single point]"
Cc1sc2ncn(CC(=O)NC3CCCCC3)c(=O)c2c1C,15.3,,"0.326 µM [rising, full curve, poor fit]"

# A different layout for some results above.
SMILES	cell number change [%]	AC50 [1]	AC50 [2]
Cc1ccc(C)c(OCCCNC2CCCC2)c1C	-27.6		0.58 µM [falling, full curve]
Cn1c(=O)c2c(nc(CN3CCC(C(N)=O)CC3)n2Cc2ccccc2F)n(C)c1=O	15.5		0.0731 µM [falling, single point]
